{"source": "PubChem BioAssay AID540256", "about": "(National Center for Advancing Translational Sciences (NCATS), 2011)", "note": "In all, about 300,000 compounds went through this assay and about 3,700 (1.2%) were called active. Inconclusive means that the source gave no clear call. Such entries were picked first, then a sample of the others. The call rests on the fitted dose curve; tested in HEK293 cells. Where the call is inconclusive, the potency comes from a doubtful curve fit. On the % scale 0 is the no-effect control and ±100 the full control effect; potency means the concentration at half of the fitted maximal effect.", "data": [{"experiment": "qHTS for Inhibitors of binding or entry into cells for Lassa Virus; further: nearly all actives have a fitted effect of over 50% in size", "conditions": "Lassa virus pseudotype entry inhibition, cell reporter; activity change, negative = inhibition: at 37.9 µM (top of the series) unless noted", "values": [{"smiles": "CCCNCc1cc(Br)ccc1OCC(=O)NCCc1ccccc1", "Potency": "inconclusive: 1.12 µM [inhibitor, partial curve, poor fit]"}, {"smiles": "CCOc1ccc(C(C(=O)NCC2CCCO2)N(Cc2ccccc2)C(=O)c2snc(C(N)=O)c2N)cc1", "note": "(centres undefined)", "Potency": "inconclusive: 15.8 µM [inhibitor, single point]"}, {"smiles": "CNC(=O)c1cncc(C=Cc2c(Cl)cccc2Cl)c1", "Potency": "inconclusive: 8.88 µM [activator, partial curve, poor fit]"}, {"smiles": "S=c1[nH]nc(-c2cccs2)n1/N=C/c1cn(-c2ccccc2)nc1-c1cccs1", "Potency": "inconclusive: 15.8 µM [inhibitor, single point]"}, {"smiles": "c1ccc2oc(Cc3ccc(Cc4nc5ccccc5o4)cc3)nc2c1", "Potency": "inconclusive: 29.1 µM [inhibitor, single point]"}, {"smiles": "COc1cc(/C=N/NC(N)=O)cc(Br)c1OCc1ccc(C)cc1", "Potency": "inconclusive: 7.3 µM [inhibitor, single point]"}, {"smiles": "CCOc1ccc(OCC)c(NC(=O)c2cnn(-c3ccc(F)cc3)c2C2CCN(C(=O)OC(C)(C)C)CC2)c1", "Potency": "inconclusive: 10 µM [inhibitor, partial curve, poor fit]"}, {"smiles": "CCOc1ccccc1CN1CCNC(=O)C1CC(=O)NCc1nccn1CC", "note": "(centres undefined)", "activity change, negative = inhibition": "inactive: 8.63%"}, {"smiles": "COc1ccc(CNC(=O)Cc2ccc(-c3ccccc3)cc2)cc1OC", "Potency": "inconclusive: 7.94 µM [inhibitor, partial curve, poor fit]"}, {"smiles": "Cn1c(O)c(C(=O)c2ccccc2F)c(=O)n(C)c1=O", "Potency": "inconclusive: 0.0046 µM [inhibitor, partial curve, poor fit]"}, {"smiles": "O=C(c1cccs1)N1CCC(c2nc3c(nnn3Cc3ccccc3Cl)c(=O)[nH]2)CC1", "Potency": "active: 7.94 µM"}, {"smiles": "N#Cc1c(Nc2ccc(F)cc2)sc(C(=O)c2ccccc2)c1N", "Potency": "inconclusive: 14.6 µM [inhibitor, single point]"}, {"smiles": "Cc1cc(C)c(S(=O)(=O)/N=C2\\C=C(Nc3ccc(C(=O)O)cc3)C(=O)c3ccccc32)c(C)c1", "Potency": "inconclusive: 15.8 µM [inhibitor, partial curve, poor fit]"}, {"smiles": "COc1cccc(-c2nn(C)c3sc(C(=O)NCCc4cccc(C)c4)cc23)c1", "Potency": "inconclusive: 3.55 µM [inhibitor, partial curve]"}, {"smiles": "c1ccc(-c2cc3nccc(-c4ccccn4)n3n2)cc1", "Potency": "inconclusive: 0.631 µM [activator, partial curve, poor fit]"}, {"smiles": "Cn1nnc2cc(C(=O)N3CCC(c4ccccc4)C3)ccc21", "note": "(centres undefined)", "activity change, negative = inhibition": "inactive: 11.7%"}, {"smiles": "CCOc1cc(/C=N\\Nc2ncc(F)c(N3CCOCC3)n2)ccc1Oc1nc(Cl)ncc1F", "Potency": "inconclusive: 25.1 µM [inhibitor, single point]"}, {"smiles": "CCc1cccc(NC(=O)CSc2n[nH]c(-c3ccccc3Cl)n2)c1", "activity change, negative = inhibition": "inactive: 12.3% [at 46.1 µM]"}, {"smiles": "Cc1cc(NC(=O)c2ccccc2[N+](=O)[O-])ccc1Br", "activity change, negative = inhibition": "inactive: 15.2% [at 46.1 µM]"}, {"smiles": "CCN(CC)S(=O)(=O)c1ccc(Cl)c(C(=O)NCC2CCCO2)c1", "note": "(centres undefined)", "Potency": "inconclusive: 3.26 µM [activator, full curve, poor fit]"}, {"smiles": "COC(=O)Cc1n[nH]c(=S)[nH]c1=O", "activity change, negative = inhibition": "inactive: 3.49%"}, {"smiles": "CN(C)S(=O)(=O)Oc1ccsc1C(=O)Nc1ccc(C(F)(F)F)cc1", "Potency": "inconclusive: 0.501 µM [inhibitor, full curve, poor fit]"}, {"smiles": "CCCCNC(=O)c1cc2c(=O)n(CC)c3ccccc3c2s1", "Potency": "inconclusive: 7.08 µM [inhibitor, partial curve, poor fit]"}, {"smiles": "COc1ccc(CC(NC(C)=O)C(=O)NC2CCN(S(=O)(=O)c3cccc4ccccc34)CC2)cc1OC", "note": "(centres undefined)", "Potency": "inconclusive: 1.03 µM [inhibitor, partial curve, poor fit]"}, {"smiles": "CC(=O)N1CCN(S(=O)(=O)c2cccc(C(=O)OCc3ccc(C(C)(C)C)cc3)c2)CC1", "Potency": "inconclusive: 31.6 µM [inhibitor, single point]"}, {"smiles": "CCOc1ccc(-c2nnc(SCC(=O)Oc3ccccc3)o2)cc1", "activity change, negative = inhibition": "inactive: 13% [at 46.1 µM]"}, {"smiles": "Cc1cccc(NC(=S)NC(=O)c2cccs2)n1", "Potency": "inconclusive: 9.2 µM [activator, partial curve, poor fit]"}, {"smiles": "CC12CC(=O)C3C(CCC4=CC(=O)CCC43C)C1CC=C2CC(=O)O", "note": "(centres undefined)", "activity change, negative = inhibition": "inactive: 3.49% [at 46.1 µM]"}, {"smiles": "O=C(Nc1cccc(O)c1)C(=O)Nc1ccccn1", "Potency": "inconclusive: 20 µM [inhibitor, single point]"}, {"smiles": "CCNc1nc(CSc2ccccc2)nc2sc(C)c(C)c12", "Potency": "inconclusive: 35.5 µM [inhibitor, single point]"}, {"smiles": "CC(C)C(=O)N1CCC(c2nc(-c3ccc(S(=O)(=O)N4CCCC4)cc3)no2)CC1", "Potency": "inconclusive: 0.461 µM [inhibitor, single point]"}, {"smiles": "O=C(O)c1ccccc1CSc1nc2ccccc2n1Cc1ccccc1C(=O)O", "Potency": "inconclusive: 5.62 µM [inhibitor, single point]"}, {"smiles": "Cc1ccc(C(=O)N2CCN(c3ccc([N+](=O)[O-])c(NCc4ccco4)c3)CC2)cc1", "Potency": "inconclusive: 12.6 µM [inhibitor, partial curve, poor fit]"}, {"smiles": "COc1ccc(-c2ocnc2C(=O)Nc2ccccc2N2CCCCC2)cc1", "Potency": "inconclusive: 20 µM [inhibitor, partial curve, poor fit]"}, {"smiles": "CCN(CC)CCCOC(=O)C(OC)(c1ccccc1)c1ccccc1", "activity change, negative = inhibition": "inactive: -14.3%"}, {"smiles": "CN(C)C(CNC(=O)c1cc(S(=O)(=O)N(C)c2ccc(F)cc2)ccc1Cl)c1ccco1", "note": "(centres undefined)", "activity change, negative = inhibition": "inactive: -9.31%"}, {"smiles": "CCOc1ccc(-n2c(C)nc3cc(C(=O)NCc4ccc(C)cc4)ccc32)cc1", "Potency": "inconclusive: 1.58 µM [inhibitor, full curve, poor fit]"}, {"smiles": "CCOC(=O)c1[nH]nc(-c2cc(CC)c(O)cc2O)c1-c1cscn1", "Potency": "inconclusive: 10.3 µM [inhibitor, partial curve]"}, {"smiles": "CCCc1sc(N/N=C/c2ccccn2)nc1-c1ccc(F)cc1", "Potency": "inconclusive: 8.2 µM [inhibitor, partial curve, poor fit]"}, {"smiles": "CCn1nc(C)c(CCN(C)C(=O)Nc2ccc(C)c(Cl)c2)c1C", "Potency": "inconclusive: 6.31 µM [activator, full curve, poor fit]"}, {"smiles": "COc1ccc(C(=O)N2CCC(C(=O)c3ccc(F)cc3)CC2)cc1", "activity change, negative = inhibition": "inactive: -19.3%"}, {"smiles": "CC1CCCCC12NC(=O)N(CC(=O)OCc1ccccc1Cl)C2=O", "note": "(centres undefined)", "activity change, negative = inhibition": "inactive: -17.9% [at 46.1 µM]"}, {"smiles": "Cc1ccc(-c2nc(SC(C)C(=O)c3c(N)n(C)c(=O)n(C)c3=O)n[nH]2)cc1", "note": "(centres undefined)", "Potency": "inconclusive: 11.2 µM [inhibitor, partial curve]"}, {"smiles": "Cc1cccc(Nc2nn3c(=O)c4cc5c(cc4nc3s2)OCO5)c1", "activity change, negative = inhibition": "inactive: 7.59% [at 46.1 µM]"}, {"smiles": "Cc1ccc(C(=O)Nc2ccc3ncccc3c2)cc1", "Potency": "inconclusive: 3.16 µM [inhibitor, full curve, poor fit]"}, {"smiles": "CCc1ccc(Cn2c(CNS(=O)(=O)c3ccc([N+](=O)[O-])cc3)nc3cccnc32)cc1", "activity change, negative = inhibition": "inactive: -22% [at 46.1 µM]"}, {"smiles": "Cc1cccc(/C=C/c2nc3ccccc3c(=O)n2Cc2ccccc2)c1", "Potency": "inconclusive: 11.2 µM [inhibitor, partial curve, poor fit]"}, {"smiles": "COc1ccc(CCNC(=O)CN2C(=O)COc3ccc(C)cc32)cc1OC", "Potency": "inconclusive: 6.31 µM [activator, full curve]"}, {"smiles": "COc1ccc(/C=N/Nc2nc(-c3cccc(S(=O)(=O)N4CCCC4)c3)cs2)c(OC)c1", "Potency": "inconclusive: 6.31 µM [inhibitor, partial curve, poor fit]"}, {"smiles": "CCOC(=O)c1cnc2c(c(C)nn2C)c1Oc1cc(Cl)cc(Cl)c1", "Potency": "inconclusive: 22.4 µM [inhibitor, single point]"}, {"smiles": "CC(=O)c1ccc2c(ccc3ccccc32)c1", "Potency": "inconclusive: 4.47 µM [activator, single point]"}, {"smiles": "Cn1c(=O)[nH]c(=O)c2c1nc(Sc1nc3ccccc3s1)n2Cc1ccccc1", "activity change, negative = inhibition": "inactive: -5.63%"}, {"smiles": "NNC(=O)Cn1c(-c2ccccc2)cc2ccccc21", "Potency": "inconclusive: 11.2 µM [activator, single point]"}, {"smiles": "CC(=O)c1ccc(NC(=S)NNC(=O)c2ccncc2)cc1", "activity change, negative = inhibition": "inactive: 2.41%"}, {"smiles": "COc1ccc(/C=N/NC(=O)c2nc(-c3ccccc3)n(-c3ccccc3)n2)cc1OC", "Potency": "inconclusive: 0.501 µM [inhibitor, full curve, poor fit]"}, {"smiles": "COc1ccccc1NS(=O)(=O)c1cccc(C(=O)OCc2nc3ccccc3s2)c1", "Potency": "inconclusive: 5.8 µM [activator, partial curve, poor fit]"}, {"smiles": "CC(C)(C)C(=O)NNC(=O)c1ccc(Oc2cc(Cl)cc(Cl)c2)o1", "Potency": "inconclusive: 0.794 µM [inhibitor, single point]"}, {"smiles": "Cc1ccc(-n2ncc(C(=O)NCc3ccccc3)c2C2CCN(C(=O)OC(C)(C)C)CC2)cc1", "Potency": "inconclusive: 1.12 µM [inhibitor, full curve]"}, {"smiles": "CN1CCC2(CC1)N=C(c1ccc(F)cc1)C(=S)N2C(=O)c1ccc(C(C)(C)C)cc1", "Potency": "inconclusive: 10 µM [inhibitor, partial curve]"}, {"smiles": "CNC(=O)/C(C#N)=C/c1c(N(Cc2ccccc2)Cc2ccccc2)nc2ccccn2c1=O", "Potency": "active: 11.2 µM"}, {"smiles": "CCOc1ccccc1NC(=O)Cn1c(=O)n(Cc2ccccc2)c(=O)c2c1c1cc(C)ccc1n2C", "activity change, negative = inhibition": "inactive: 26.3% [at 46.1 µM]"}, {"smiles": "CCC(C)(C)C1CCc2nc3ccccc3c(C(=O)OC(C)C(=O)Nc3c(C)n(C)n(-c4ccccc4)c3=O)c2C1", "note": "(centres undefined)", "Potency": "inconclusive: 11.2 µM [inhibitor, partial curve, poor fit]"}, {"smiles": "CCOC(=O)COc1ccc(/C=C/[N+](=O)[O-])c(OCC(=O)OCC)c1", "Potency": "active: 20.6 µM"}, {"smiles": "O=C1/C(=C\\c2cccs2)Sc2ccc3ccccc3c21", "Potency": "inconclusive: 1.03 µM [activator, full curve, poor fit]"}]}]}
